From patent US10464947B2 (Incyte Corporation, priority 2013, dated 2019)
Structures can show the parent of a compound that is named as a salt.

System: KMS.12.BM cells
Assay: KMS.12.BM Cell Viability Assay (Example B1)
Assay type: cell-based
Details: Homo sapiens, 72 h, read-out: KMS cellular IC50 (nM)
Experimental: KMS.12.BM cell line (human myeloma) was purchased from JCRB (Osaka, Japan) and maintained in RPMI with 10% FBS culture medium. To measure the cytotoxic activity of the compounds through ATP quantitation, the KMS.12.BM cells are plated in the RPMI culture medium at 5000 cells/well/per 100 μL into a 96-well polystyrene clear black tissue culture plate (Greiner-bio-one through VWR, NJ), in the presence or absence of a concentration range of test compounds. After 3 days, […] Cell Titer-GLO Luminescent (Promega, Madison, Wis.) cell culture agent is added to each well for 10 min. at room temperature to stabilize the luminescent signal. This determines the number of viable cells in culture based on quantitation of the ATP present, which signals the presence of metabolically active cells.

SMILES | IC50 [nM]
Cc1noc(C)c1-c1ccc2nc(N3CC[C@@H](N)C3)n3c2c1OC[C@@H]3c1ccccn1 [Example 202A, (3R)-1-[(4S)-7-(3,5-dimethylisoxazol-4-yl)-4-pyridin-2-yl-4,5-dihydroimidazo[1,5,4-de][1,4]benzoxazin-2-yl]pyrrolidin-3-amine trihydrochloride] | < 1000
Cc1noc(C)c1-c1ccc2nc(N3CC[C@H](N)C3)n3c2c1OC[C@@H]3c1ccccn1 [Example 202B, (3S)-1-[(4S)-7-(3,5-dimethylisoxazol-4-yl)-4-pyridin-2-yl-4,5-dihydroimidazo[1,5,4-de][1,4]benzoxazin-2-yl]pyrrolidin-3-amine trihydrochloride] | < 1000
